Measured values from the supplement of paper PMC12889115.
Some of the results follow. These are raw signals, not scaled to a control.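 In the initial screen, polymyxin B was used at a concentration that permeabilizes Salmonella's outer membrane but not its inner membrane. Maximum growth was set by DMSO wells with or without polymyxin B. Since plates varied, data were ranked per plate, and compounds giving the lowest OD600 advanced as hits.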

Tested on: Salmonella enterica serovar Typhimurium SL1344
Assay: bacterial growth OD600 after 18 h with compound and polymyxin B; higher = more bacterial growth (less inhibition)
Conditions: 50 µM, Mueller-Hinton broth

Compound | bacterial growth OD600 (polymyxin B 1 µg/mL) | bacterial growth OD600 (polymyxin B 0.75 µg/mL)
CN(Cc1cccnc1)C(=O)CC1C(=O)NCCN1CCCc1ccccc1 (configuration not stated) | 0.86 | 
Cc1cc(C(=O)N2CCCC(C(=O)c3ccc(-c4ccccc4)cc3)C2)nn1C (configuration not stated) | 0.005 | 
CN1CCN([C@@H]2CCN(C(=O)/C=C/c3ccc(Cl)cc3)C[C@H]2O)CC1 | 0.941 | 
COc1ccc(CCN2CC(NC(=O)c3csc(C)n3)CC2=O)cc1 (configuration not stated) | 0.856 | 
O=C(/C=C/c1ccccc1F)N1CCC(C2(c3ccccn3)NC(=O)N(CC3CCCO3)C2=O)CC1 (configuration not stated) |  | 0.825
O=C([C@@H]1C[C@H]1c1ccccc1)N1CCOc2ccc(CN3CCN(c4ccccn4)CC3)cc2C1 |  | 0.857
COc1ccc2c(c1)SC(c1ccc(OC)c(C)c1)CCN2Cc1cccc2nccnc12 (configuration not stated) |  | 0.008
O=C(NCCn1cccn1)c1cc(COc2ccc3c(c2)OCO3)[nH]n1 | 1.19 | 
O=C(CCc1ccccn1)N1CCCC(CNC(=O)C2(c3ccc(Cl)cc3)CC2)C1 (configuration not stated) | 0.644 | 
O=C(Cn1nnnc1CN1CCCC1)N1CCN(Cc2cccnc2)CC1 |  | 0.784
CN(CC1CCCCO1)C(=O)c1cn(Cc2ccc(Cl)cc2)nn1 (configuration not stated) | 0.009 | 
O=C(c1ccc(=O)[nH]n1)N1CCc2onc(-c3cccc4ccccc34)c2C1 |  | 0.006
O=C(NCc1ccco1)N1CCC(C2CCN(CCc3ccccc3)C2)CC1 (configuration not stated) |  | 0.515
c1ccc(CCC2CN(Cc3cccs3)CCO2)cc1 (configuration not stated) |  | 0.645
CCOC(=O)N1CCN(C2CCCN(C(=O)c3cc4cc(F)ccc4[nH]3)C2)CC1 (configuration not stated) | 0.865 | 
CCNC(=O)c1cn(CCc2ccccc2)cc(C(=O)N2CCCC(c3ccccc3)CC2)c1=O (configuration not stated) |  | 0.899

Compound | bacterial growth OD600 (polymyxin B 1 µg/mL) | bacterial growth OD600 (polymyxin B 0.75 µg/mL)
O=C(NC1CCCCCCC1)C1CCC(=O)N(Cc2ccc(Cl)cc2)C1 (configuration not stated) | 0.049 | 
CCCCn1c(CN2CCOCC2)cnc1S(=O)(=O)CC | 1 | 
OCC1CCCCN1CCNc1nc2nonc2nc1N1CCCC1 (configuration not stated) |  | 0.785
COc1ccccc1CC(=O)NC1CC(=O)N(Cc2ccc(F)cc2)C1 (configuration not stated) | 0.857 | 
COc1ccccc1CC(=O)Nc1cnn(CC(=O)NCCc2ccc(C)cc2)c1 |  | 0.837
CN(Cc1ccsc1)c1ccc(C(=O)NCCC2CCCCN2C)cn1 (configuration not stated) | 1.11 | 
CC(=O)c1cc(CN2CCC(CCC(=O)N3CCN(c4ccccc4)CC3)CC2)cs1 | 0.967 | 
CN(Cc1nc(Cc2ccccc2Cl)no1)CC1COc2ccccc2O1 (configuration not stated) | 0.779 | 
COC(=O)CCC(=O)N1CCC2(CCCN(Cc3ccccc3F)C2=O)C1 (configuration not stated) | 1.05 | 
CN(C)C(=O)CCC(=O)N1CCCC(CCc2cccc(C(F)(F)F)c2)C1 (configuration not stated) |  | 0.26
CCn1cc(CNC(=O)CCC2(Cc3ccc(OC)c4ccccc34)CCC(=O)N2)cn1 (configuration not stated) |  | 0.903
O=C(NC1CCC1)c1cc(COc2ccc(F)cc2F)[nH]n1 |  | 0.717
CCOc1ccc2nc(N3CCCN(Cc4ccccc4O)CC3)nc(C)c2c1 |  | 0.766
CC(C)(C)CNc1ccc(C(=O)N2CCCN(c3ncccn3)CC2)cn1 | 0.903 | 
COC(=O)CCC(=O)N(C)CC1CCCN(CCc2cccc(C(F)(F)F)c2)C1 (configuration not stated) | 0.908 | 
O=C(c1ccc(C(F)(F)F)cc1)C1CCCN(C(=O)C2=CCCC2)C1 (configuration not stated) | 0.701 | 

Given in markdown: two of the compounds above.

| Compound | bacterial growth OD600 (polymyxin B 1 µg/mL) | bacterial growth OD600 (polymyxin B 0.75 µg/mL) |
| --- | --- | --- |
| CC(=O)c1cc(CN2CCC(CCC(=O)N3CCN(c4ccccc4)CC3)CC2)cs1 | 0.967 |  |
| CN(Cc1nc(Cc2ccccc2Cl)no1)CC1COc2ccccc2O1 (configuration not stated) | 0.779 |  |
